Here are results for one compound from ChEMBL document CHEMBL5137074 (J Med Chem, 2022).

Data set [1] can be described thus: Plasma protein binding in rat at 1 uM.
A short description of data set [2]: Metabolic stability in human hepatocytes assessed as intrinsic clearance measured per 10^6 cells.
For data set [3] the following is noted: rat, in vivo, iv, 1 mg/kg, 24 h.
For data set [4] the following is noted: Sprague-Dawley, rat, in vivo, po, 5 mg/kg, 24 h.

With `Cc1ccc(O)c(C)c1-n1c(N)c(C(N)=O)c2nc(C)c(C)nc21`, the PPB in data set [1] is recorded as 89.2%. Also, the CLH in data set [2] was less than 3 µL/min. Further, the CL free in data set [3] is 30.3 L/h/kg. The same compound registered a F in data set [4] of 20%.
